According to paper PMC10861811:
These are yes or no findings as the source states them, for the method shown. In cells and extracts the contact can be indirect. Some binding calls cover weakened binding; strength is not graded here. Where a sequence is shown, tags or fusion partners need not be part of it.

Molecular target: T1, NFIL3-GFP (Nuclear Factor, IL-3 Regulated) (human) (UniProt Q16649)
T1 sequence: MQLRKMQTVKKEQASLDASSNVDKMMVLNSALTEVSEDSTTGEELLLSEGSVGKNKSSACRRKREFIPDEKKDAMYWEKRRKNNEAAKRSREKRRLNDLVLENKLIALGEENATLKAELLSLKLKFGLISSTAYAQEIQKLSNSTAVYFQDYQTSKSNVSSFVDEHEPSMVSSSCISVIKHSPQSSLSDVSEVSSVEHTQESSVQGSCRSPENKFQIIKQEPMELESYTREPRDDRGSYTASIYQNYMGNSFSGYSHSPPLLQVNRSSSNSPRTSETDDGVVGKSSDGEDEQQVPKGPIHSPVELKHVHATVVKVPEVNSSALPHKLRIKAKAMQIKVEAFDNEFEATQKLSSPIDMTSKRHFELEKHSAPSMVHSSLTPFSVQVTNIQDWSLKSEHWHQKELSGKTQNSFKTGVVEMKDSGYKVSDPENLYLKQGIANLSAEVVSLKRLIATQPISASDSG
Test: co-IP; SKOV3 cells transiently transfected, lysed in IP lysis buffer; mouse GFP antibody or mouse isotype control IgG overnight at 4 °C, protein A/G PLUS agarose beads, five washes, Western blot

“p53 (pmCherry-C1-P53) (from UniProt P04637 1-393)” was tested, and the binding was “binds”.
